{
  "source": "patent US9889234B2",
  "about": "“Scaffold for hard tissue regeneration containing active ingredient for treating osteoporosis and preparing method thereof” (KOREA INSTITUTE OF MACHINERY AND MATERIALS, priority 2014, dated 2018)",
  "tested_on": "RAW 264.7 cells, the multinuclear osteoclasts treated with RANKL",
  "test": "Osteoclast proliferation activity, drug in medium",
  "type": "cell-based",
  "details": "compared with the case not treated; 1 μM or 200 μM",
  "experimental": "The experiment was performed by the same manner as described in Experimental Example <2-3> except that RAW 264.7 cells, the multinuclear osteoclasts treated with RANKL (Receptor Activation for Nuclear Factor κB Ligand), were used instead of MC3T3-E1 cells (MC3T3-E1 Subclone 4, ATCC CRL-2593, obtained from ATCC), and the results are presented in FIG. 8.",
  "data": [
    {"smiles": "NCCCC(O)(P(=O)(O)O)P(=O)(O)O", "note": "[Alendronate, reference compound]", "values": [
      {"measurement": "proliferation of osteoclasts", "result": "significantly inhibited"}
    ]}
  ]
}
